Consider 42 sequences from article PMC7819943, “Rice protein-binding microarrays: a tool to detect cis-acting elements near promoter regions in rice”.

Protein sequences, listed by entry. Tags and fused reporters are not part of them.
UniProt Q0JBA9, entry or part of it: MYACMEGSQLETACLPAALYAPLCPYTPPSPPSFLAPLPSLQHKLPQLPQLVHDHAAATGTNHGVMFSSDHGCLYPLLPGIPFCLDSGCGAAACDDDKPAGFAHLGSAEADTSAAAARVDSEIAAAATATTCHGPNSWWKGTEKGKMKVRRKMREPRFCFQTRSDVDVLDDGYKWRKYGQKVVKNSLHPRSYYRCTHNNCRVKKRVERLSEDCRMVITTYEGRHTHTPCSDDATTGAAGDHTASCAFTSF

The other results are listed elsewhere or left out.

For the experiment, the target named is OsWRKY34 (Oryza sativa, UniProt Q0JBA9 1-250). In words: protein-binding microarray (RPBM); PBS, 2% BSA, 51.3 ng/ul salmon testes DNA, 50 uM zinc acetate, 200 nM TF, 25 C, 1 h; high values mean tight binding. As to conditions: protein: recombinant; tags: N-terminal polyhistidine and DsRed monomer fusion (pET32a); label: CyDye5-dUTP incorporated in the synthesized complementary strand; 3' TTTTT single-stranded linker to array surface; dsDNA, one strand shown. The gist of the method: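 Transcription factors were made in E. coli BL21-CodonPlus as N-terminal fusions to a polyhistidine tag and DsRed, then purified on Ni–NTA. After primer extension with Cy5-dUTP and blocking with 2% BSA, a custom Agilent array was exposed for 1 h at 25 °C to 200 nM protein in PBS, 2% BSA, salmon testes DNA and 50 µM zinc acetate. Washed arrays were scanned on an Axon 4000B, and the binding signal is per-feature fluorescence intensity in arbitrary units.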
Turning to “CGCCCGCCCAGAAAAGCCGCCTCGTTCCGTTGTCTCAGCGCGGAGTCACCTAGTGCAG”, the binding signal is 8350 fluorescence intensity (a.u.).

For “GCATTCCATAGTATATATACTTATCGTGTTTCTCTGAAGACGGAGTCACCTAGTGCAG”, the binding signal is 8330 fluorescence intensity (a.u.).

As to “TTTTCATTTTCGTTCTTCCCTCGCTGCGGCTTTCAATTTCCGGAGTCACCTAGTGCAG”, the binding signal is 10500 fluorescence intensity (a.u.).

Consider “TCAGATCCACTTACTTCGCGCCACACCCTTCGTCTCCATCCGGAGTCACCTAGTGCAG”, for which the binding signal was 10200 fluorescence intensity (a.u.).

Take “TCTCGCCACCGCCACCGCCACCTTAGCCGCGCGAGGCATTCGGAGTCACCTAGTGCAG”: the binding signal is 11700 fluorescence intensity (a.u.).

Turning to “TCCTTACCTTTCTTGACATGCTCAAGGCAACAGCAAACACCGGAGTCACCTAGTGCAG”, the binding signal was 8680 fluorescence intensity (a.u.).

With “CATCTTTTTTTGACCTAGGTATCCCTCTAAGCCAATCACCCGGAGTCACCTAGTGCAG”, the binding signal is 10400 fluorescence intensity (a.u.).

As for “TCTGTTTATACAATGTACATTGTGCAAATCCTTTAATCATCGGAGTCACCTAGTGCAG”, the binding signal is 8090 fluorescence intensity (a.u.).

For the sequence “TACCTGATTTGTGCATATGTTTCTTTCTGTTTTGCCCTTACGGAGTCACCTAGTGCAG”, the binding signal was 8170 fluorescence intensity (a.u.).

For “CCTTTCTGCTGTGAATTTTGTTGACGGCGGCGGCAACGACCGGAGTCACCTAGTGCAG”, the binding signal is 9040 fluorescence intensity (a.u.).

For “TTGTATTCCTACCTGAACTCTTCTTTTATTTTCTTTTGCTCGGAGTCACCTAGTGCAG”, the binding signal is 9430 fluorescence intensity (a.u.).

On to “CCTCTTGCTATGTGCTGCTCTTCCTTGTTCTTCTTGCCTACGGAGTCACCTAGTGCAG”, for which the binding signal is 10800 fluorescence intensity (a.u.).

As for “CACAACCAAGTTTTTATCTCATGCACTTCCACATCTTTTCCGGAGTCACCTAGTGCAG”, the binding signal is 9500 fluorescence intensity (a.u.).

As to “GTGAGTTGTTTATTTTATTATCTTTTTTTAGTCAATTCCACGGAGTCACCTAGTGCAG”, the binding signal is 13100 fluorescence intensity (a.u.).

Consider “CATTATCTTTCTAGCCTGCTAACCATCACGTACACTTTCCCGGAGTCACCTAGTGCAG”, for which the binding signal is 8760 fluorescence intensity (a.u.).

Take “AACTCATATGATCCACATGTCATTTTCTACCTTTTCTACTCGGAGTCACCTAGTGCAG”: the binding signal is 10600 fluorescence intensity (a.u.).

Take “TTTCTTGGCTTTTTTGCGTGCTTCTGTGCTAGTAGTAGCACGGAGTCACCTAGTGCAG”: the binding signal is 9120 fluorescence intensity (a.u.).

With “AACTAGTTTTCCTTCTTGCACCAATTCCTCTTGTTTCTTTCGGAGTCACCTAGTGCAG”, the binding signal is 10500 fluorescence intensity (a.u.).

With “ATGCTTATTATTCACCGAGCACTTTCATCACTTCGGAAGTCGGAGTCACCTAGTGCAG”, the binding signal is 8180 fluorescence intensity (a.u.).

For “TTTAGCTGCATGTGGATGTGTATACACATTGTGTGGTTTTCGGAGTCACCTAGTGCAG”, the binding signal was 8870 fluorescence intensity (a.u.).

As to “CGCTGCGCTCTCCTTCATCGCCATCGTTGTTCGCCCTACGCGGAGTCACCTAGTGCAG”, the binding signal was 8190 fluorescence intensity (a.u.).

On to “TGAATCCATGGTGGGTCGTTGGCCAACTCCTCCATTTCTCCGGAGTCACCTAGTGCAG”, for which the binding signal is 8970 fluorescence intensity (a.u.).

“GTGCACTGGTACGTGGGCGAAGGGATGGAGGAAGGGGAGTCGGAGTCACCTAGTGCAG”: the binding signal is 9180 fluorescence intensity (a.u.).

In the case of “GCCTGCATCTCGCTGATTGTGATGCTGCTGTCCGCTTCCGCGGAGTCACCTAGTGCAG”, the binding signal is 9180 fluorescence intensity (a.u.).

Regarding “CTTCTGCTCTCTAGCTAGCCTTCTTCCTATTGGAAGCTTCCGGAGTCACCTAGTGCAG”, the binding signal was 9230 fluorescence intensity (a.u.).

On to “ATGAATTAGGTGTGGTTCTCTTTAATCTGTTATTAGTCATCGGAGTCACCTAGTGCAG”, for which the binding signal is 11000 fluorescence intensity (a.u.).

As to “CAATGATATCTCTACTAGTCATCTCAGCGGCCGGTGGCACCGGAGTCACCTAGTGCAG”, the binding signal was 8900 fluorescence intensity (a.u.).

For the sequence “CCCTGCATTCCCGCGTATTCTCCTCATCCATCCATCATCCCGGAGTCACCTAGTGCAG”, the binding signal was 12800 fluorescence intensity (a.u.).

Regarding “TTACCTGTAGGCCGCACGCACGTTGCTCTCGCCTCTCGCACGGAGTCACCTAGTGCAG”, the binding signal was 11000 fluorescence intensity (a.u.).

As for “TCACCACCACGCAATTTGCCAATTCATGCCCGTCTCGTCGCGGAGTCACCTAGTGCAG”, the binding signal was 8540 fluorescence intensity (a.u.).

Consider “AGTGTCATTTATCATGAGAGTTATTGGTTATGTGGGTTTACGGAGTCACCTAGTGCAG”, for which the binding signal is 9850 fluorescence intensity (a.u.).

Turning to “GTTTCTTTTTAAATTTGGACCTCTCCGCTCTCCGGCCCAACGGAGTCACCTAGTGCAG”, the binding signal was 9420 fluorescence intensity (a.u.).

On to “AAAATCCCATACCAATTACACCCTAGCATACATACATTTTCGGAGTCACCTAGTGCAG”, for which the binding signal was 9640 fluorescence intensity (a.u.).

With “GGTTTAGGGTATTGAGGCCGGGGCGGCGGAGTGGAGAGGACGGAGTCACCTAGTGCAG”, the binding signal was 13500 fluorescence intensity (a.u.).

As for “GCAACCACCGCCCGCTCTCATCCCTTCACAAGTGCGGCGCCGGAGTCACCTAGTGCAG”, the binding signal is 8770 fluorescence intensity (a.u.).

For “CCGTCGCCGCCGTCGTCTCCATCTCCGGCGTCACCTCCGTCGGAGTCACCTAGTGCAG”, the binding signal was 9150 fluorescence intensity (a.u.).

In the case of “TTGCACATCCTTCTAGCTTCATAGTTTGTGTTTTATGTCACGGAGTCACCTAGTGCAG”, the binding signal is 8430 fluorescence intensity (a.u.).

Regarding “ATGGGGCGGGTGCCGTGCTGCGAGAAGGACAACGTGAAGCCGGAGTCACCTAGTGCAG”, the binding signal was 8380 fluorescence intensity (a.u.).

As to “ATTCTGATTCTTTTCTTGTGCTGCAATTCCTTTCCTAGTACGGAGTCACCTAGTGCAG”, the binding signal is 12000 fluorescence intensity (a.u.).

On to “CTTCCCCTGATGATTGGCCTGAAATGGATGCTCAGGAATTCGGAGTCACCTAGTGCAG”, for which the binding signal is 9120 fluorescence intensity (a.u.).

For “AACGTACCTCAATATCCATACTATCCGGTCTACAGGTATCCGGAGTCACCTAGTGCAG”, the binding signal is 9150 fluorescence intensity (a.u.).

As to “TCATTTCGTGCTGCATTTTTTCACATGCATCCCTGACACGCGGAGTCACCTAGTGCAG”, the binding signal was 10300 fluorescence intensity (a.u.).
